# Where a name gives a salt, the structure may show the parent alone. ± gives the standard deviation of the averaged measurements. Only a part is listed here, and it is no random draw. Repeats in this data set agree poorly, so a single value says little.
# System: FaDu
# Assay: mitochondrial oxygen consumption rate normalised to cell number, Z score over the library; higher = higher oxygen consumption (negative = OCR reduction)
# Details: treatment time 24 h, assay medium: 5 mM galactose, 5 mM pyruvate, 4 mM glutamine
# Experimental: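 Primary screen: FaDu cells were incubated 24 h with Pharmakon 1600 / TDI oncology set compounds at 2 or 10 uM. Mitochondrial-specific OCR (basal minus 2 uM antimycin A) was measured on a Seahorse XF96 in assay medium with 5 mM galactose, 5 mM pyruvate and 4 mM glutamine, then corrected for Hoechst cell number and expressed as a Z score […]. Compounds that cut cell number by >66% were excluded. Two repeats.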
SMILES,mitochondrial oxygen consumption rate normalised (2 µM),mitochondrial oxygen consumption rate normalised (10 µM)
CN(C)CCOC(c1ccc(Cl)cc1)c1ccccn1 (stereo unspecified),0.627 ± 0.85,–
O=C1CCc2ccc(OCCCCN3CCN(c4cccc(Cl)c4Cl)CC3)cc2N1,-0.798 ± 0.11,–
COC(=O)C1=C(C)NC(C)=C(C(=O)OCC(C)C)C1c1ccccc1[N+](=O)[O-] (stereo unspecified),-0.133 ± 0.059,–
C/C=C(/C)C(=O)O[C@H]1[C@H](OC(C)=O)[C@@]2(CO)C(CC1(C)C)C1=CCC3[C@@]4(C)CCC(O[C@@H]5O[C@H](C(=O)O)[C@@H](O[C@@H]6O[C@H](CO)[C@@H](O)[C@H](O)[C@H]6O)[C@H](O)[C@H]5O[C@@H]5O[C@H](CO)[C@@H](O)[C@H](O)[C@H]5O)[C@](C)(CO)C4CC[C@@]3(C)[C@]1(C)C[C@H]2O.C/C=C(\C)C(=O)O[C@H]1[C@H](OC(C)=O)[C@@]2(CO)C(CC1(C)C)C1=CCC3[C@@]4(C)CCC(O[C@@H]5O[C@H](C(=O)O)[C@@H](O[C@@H]6O[C@H](CO)[C@@H](O)[C@H](O)[C@H]6O)[C@H](O)[C@H]5O[C@@H]5O[C@H](CO)[C@@H](O)[C@H](O)[C@H]5O)[C@](C)(CO)C4CC[C@@]3(C)[C@]1(C)C[C@H]2O (stereo partly specified),-0.381 ± 0.42,0.3 ± 0.096
CN1CCN(c2c(F)cc3c(=O)c(C(=O)O)cn4c3c2SCC4)CC1,-0.387 ± 0.33,–
COC(=O)C1=C(C)NC(C)=C(C(=O)OCCN(C)Cc2ccccc2)C1c1cccc([N+](=O)[O-])c1 (stereo unspecified),0.597 ± 0.27,–
O=C1[C@H](CC[C@H](O)c2ccc(F)cc2)[C@@H](c2ccc(O)cc2)N1c1ccc(F)cc1,0.0988 ± 1.1,–
O=S(=O)(O)c1cc(I)c(O)c2ncccc12,0.858 ± 0.27,–
Cc1cnc(C(=O)NCCc2ccc(S(=O)(=O)NC(=O)NC3CCCCC3)cc2)cn1,0.308 ± 0.75,–
O=C(O)COCCN1CCN([C@H](c2ccccc2)c2ccc(Cl)cc2)CC1,-0.0896 ± 1,–
CC(O)(P(=O)(O)O)P(=O)(O)O,-0.749 ± 0.79,–
CCC1NC(=O)c2cc(S(N)(=O)=O)c(Cl)cc2N1 (stereo unspecified),0.867 ± 1.9,–
CCCCCOC(=O)Nc1nc(=O)n([C@@H]2O[C@H](C)[C@@H](O)[C@H]2O)cc1F,0.182 ± 0.33,–
CCCCCOC(=O)Nc1nc(=O)n([C@@H]2O[C@H](C)[C@@H](O)[C@H]2O)cc1F [Capecitabine],0.441 ± 0.042,–
CCCCNc1ccc(C(=O)OCCN(C)C)cc1,-1 ± 0.02,–
CCN(CC)CCOc1ccc(C(=C(Cl)c2ccccc2)c2ccccc2)cc1,-0.21 ± 0.8,–
CN1CCC(=C2c3ccccc3CCc3sccc32)CC1,0.188 ± 0.86,–
CN1CCOC(c2ccccc2)c2ccccc2C1 (stereo unspecified),0.225 ± 0.21,–
Cc1ncc(COP(=O)([O-])[O-])c(CN(CCN(CC(=O)O)Cc2c(COP(=O)([O-])O)cnc(C)c2O)CC(=O)O)c1O.[Mn].[Na+].[Na+].[Na+],0.623 ± 1.7,0.342 ± 0.21
CC1CCCC(C)N1 (stereo unspecified),0.984 ± 0.61,–
CC1=C(C/C=C(\C)CCC[C@H](C)CCC[C@H](C)CCCC(C)C)C(=O)c2ccccc2C1=O,1.21 ± 0.93,–
O=C(O)C1(C(=O)O)CCC1.[NH2-].[NH2-].[Pt+2],0.296 ± 1.2,–
O=C(O)C1(C(=O)O)CCC1.[NH2-].[NH2-].[Pt+2] [Carboplatin],0.984 ± 0.17,–
Cc1cnc(C(=O)O)c[n+]1[O-],0.0995 ± 0.68,–

# An excerpt of these results, with bars between the fields:
SMILES | mitochondrial oxygen consumption rate normalised (2 µM) | mitochondrial oxygen consumption rate normalised (10 µM)
COC(=O)C1=C(C)NC(C)=C(C(=O)OCC(C)C)C1c1ccccc1[N+](=O)[O-] (stereo unspecified) | -0.133 ± 0.059 | –
CCN(CC)CCOc1ccc(C(=C(Cl)c2ccccc2)c2ccccc2)cc1 | -0.21 ± 0.8 | –
O=C(O)C1(C(=O)O)CCC1.[NH2-].[NH2-].[Pt+2] | 0.296 ± 1.2 | –

# Additional entries follow.

SMILES,mitochondrial oxygen consumption rate normalised (2 µM),mitochondrial oxygen consumption rate normalised (10 µM)
CC(=O)Nc1cccc(O)c1,-0.934 ± 0.58,–
CC(C)Cc1ccc(C(C)C(=O)O)cc1 (stereo unspecified),-0.554 ± 0.21,–
COc1ccc(CN2CCN(C(c3ccc(F)cc3)c3ccc(F)cc3)CC2)c(OC)c1OC,-0.218 ± 0.43,–
OCc1ccccn1,0.881 ± 0.86,–
COCCc1ccc(OCC(O)CNC(C)C)cc1 (stereo unspecified),0.119 ± 1.1,–
Nc1nc2[nH]cc(CCc3ccc(C(=O)N[C@@H](CCC(=O)O)C(=O)O)cc3)c2c(=O)[nH]1 [Pemetrexed Disodium],3.47 ± 0.091,–
Nc1nc2[nH]cc(CCc3ccc(C(=O)N[C@@H](CCC(=O)O)C(=O)O)cc3)c2c(=O)[nH]1,1.43 ± 0.64,–
CC(C)(C)NC[C@H](O)COc1ccccc1C1CCCC1,-0.562 ± 0.94,–
COc1ccc(C(=O)c2ccccc2O)c(O)c1,-0.212 ± 1.1,–
COc1cc2ncnc(Nc3ccc(F)c(Cl)c3)c2cc1OCCCN1CCOCC1 [Gefitinib],0.667 ± 0.083,–
CCOc1ccc(NC(C)=O)cc1,1.14 ± 0.2,–
CN1CCC[C@@H]1CCO[C@](C)(c1ccccc1)c1ccc(Cl)cc1,0.118 ± 0.66,–
O=C(O)c1ccccc1,-0.0241 ± 0.24,–
CC(C)(C)CC(=O)OCC(=O)[C@@]1(O)CC[C@H]2[C@@H]3CCC4=CC(=O)C=C[C@]4(C)[C@H]3[C@@H](O)C[C@@]21C,0.74 ± 0.54,-0.63 ± 0.68
CC(=O)Nc1ccc(C(=O)O)cc1,-0.295 ± 0.4,–
CC/C(=C(\c1ccccc1)c1ccc(OCCN(C)C)cc1)c1ccccc1 [Tamoxifen Citrate],0.936 ± 0.59,–
CC/C(=C(\c1ccccc1)c1ccc(OCCN(C)C)cc1)c1ccccc1,-1.048 ± 0.0076,–
CCc1oc2ccccc2c1C(=O)c1cc(Br)c(O)c(Br)c1,0.521 ± 1.2,–
NCc1ccc(S(N)(=O)=O)cc1,0.532 ± 0.2,–
CN[C@@H]1[C@H](O[C@H]2[C@H](O[C@H]3[C@H](O)[C@@H](O)[C@H](NC(=N)N)[C@@H](O)[C@@H]3NC(=N)N)O[C@@H](C)[C@]2(O)CO)O[C@@H](CO)[C@H](O)[C@H]1O,0.414 ± 1.3,–
CCOC(=O)[N-]c1c[n+](N2CCOCC2)no1,-0.393 ± 1.1,–
CC[N+](CC)(CC)CCOc1cccc(OCC[N+](CC)(CC)CC)c1OCC[N+](CC)(CC)CC,-0.836 ± 0.25,–
CC(C)(C)NCC(O)c1cc(O)cc(O)c1 (stereo unspecified),-0.72 ± 0.075,–
C#C[C@]1(O)CC[C@H]2[C@@H]3CCC4=C(CCC(=O)C4)[C@H]3CC[C@@]21C,0.0166 ± 0.24,–
